Laboratory results taken from patent US20190275035A1, “WNT ANTAGONISTS AND THEIR USE IN METHODS FOR TREATING MYOCARDIAL INFARCTION” (RUPRECHT-KARLS-UNIVERSITÄT HEIDELBERG, priority 2016, published 2019).
At least one compound was matched to its structure with a doubt left.

Experiments:
[1] = tested on: WNT signaling pathway in stressed/hypoxic cardiomyocytes (NRVCM); experiment: LGK-974 on hypoxic neonatal rat ventricular cardiomyocytes, western blot; format: cell-based
[2] = tested on: C57BL/6N mice after ischemia/reperfusion (I/R) surgery; experiment: LGK-974 on monocyte inflammatory processes after MI (ischemia/reperfusion surgery); format: in vivo, mouse
[3] = tested on: immune cells; experiment: Immune cells stimulated by stressed cardiomyocytes treated with LGK-974; format: cell-based; conditions: stressed cardiomyocytes treated with LGK-974 vs non-treated; data not shown
[4] = molecular target: T1, Porcn (Homo sapiens, UniProt Q9H237); conditions: Liu J. et al, 2013; cited from earlier work
T1 sequence (Q9H237 1-461): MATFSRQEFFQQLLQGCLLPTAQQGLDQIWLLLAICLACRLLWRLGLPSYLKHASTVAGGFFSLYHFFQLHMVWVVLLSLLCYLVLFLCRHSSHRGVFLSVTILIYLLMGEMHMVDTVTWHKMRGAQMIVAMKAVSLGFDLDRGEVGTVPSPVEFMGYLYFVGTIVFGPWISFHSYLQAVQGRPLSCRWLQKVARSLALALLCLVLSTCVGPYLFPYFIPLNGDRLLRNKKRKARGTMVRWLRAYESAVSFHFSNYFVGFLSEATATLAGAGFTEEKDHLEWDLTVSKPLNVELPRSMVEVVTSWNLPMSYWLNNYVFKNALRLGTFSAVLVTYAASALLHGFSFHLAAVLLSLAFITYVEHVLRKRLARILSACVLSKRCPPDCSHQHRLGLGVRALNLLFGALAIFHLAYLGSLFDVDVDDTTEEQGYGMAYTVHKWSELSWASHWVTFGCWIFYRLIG

**Q.** Which “expression of cleaved caspase-3 (apoptosis)” value ([1]; 10 μM LGK-974 vs DMSO, hypoxic 24 h, normalized to GAPDH, FIG. 7A/7B right) does the source give for `Cc1cc(-c2ncc(CC(=O)Nc3ccc(-c4cnccn4)cn3)cc2C)ccn1` [LGK-974, 2-[5-methyl-6-(2-methylpyridin-4-yl)pyridin-3-yl]-N-(5-pyrazin-2-ylpyridin-2-yl)acetamide] here?
**A.** Its value is “reduced expression”.

**Q.** What about the “expression of active-beta catenin (signal transducer of the WNT pathway)” value ([1]; 10 μM LGK-974 vs DMSO, hypoxic (1.5% O2) 24 h, normalized to GAPDH, FIG. 7A/7B left) of the same compound?
**A.** The value was “reduced expression”.

**Q.** What about the “expression of pATF2 (activation of WNT)” value ([1]; data not shown) of the same compound?
**A.** Its value is “reduced expression”.

**Q.** What about the “number of leukocytes (CD45+) per mg heart tissue” value ([2]; 2 days after I/R surgery, two doses of 3 mg/kg oral gavage, vs control animals, p=0.059) of the same compound?
**A.** The value was “lower number”.

**Q.** And the “inflammatory monocytes (CD45+;Lineage−;CD11b+;CD11c−;Ly6C+) in the infarcted heart” value ([2]; 2 days after I/R surgery, two doses of 3 mg/kg oral gavage, vs control group, p=0.016)?
**A.** Its value is “significant reduction”.

**Q.** What about the “troponin T levels (initial infarct size)” value ([2]; blood 24 h after I/R surgery, 3 mg/kg oral gavage, vs control animals, P=0.67) of the same compound?
**A.** Its value is “same troponin T levels”.

**Q.** And the “expression of pro-inflammatory cytokines in immune cells” value [3]?
**A.** Its value is “reduced expression”.

**Q.** What about the “inhibition of Porcn” value [4] of the same compound?
**A.** Its value is “potent and selective inhibitor”.
